The values that follow come from article PMC9590138.

By UniProt entry, the sequences of proteins in these tests, tags left out. Where a name states a change or a piece, a line headed by the entry shows the natural chain unless it says otherwise. Residues count along the entry.
UniProt P06756: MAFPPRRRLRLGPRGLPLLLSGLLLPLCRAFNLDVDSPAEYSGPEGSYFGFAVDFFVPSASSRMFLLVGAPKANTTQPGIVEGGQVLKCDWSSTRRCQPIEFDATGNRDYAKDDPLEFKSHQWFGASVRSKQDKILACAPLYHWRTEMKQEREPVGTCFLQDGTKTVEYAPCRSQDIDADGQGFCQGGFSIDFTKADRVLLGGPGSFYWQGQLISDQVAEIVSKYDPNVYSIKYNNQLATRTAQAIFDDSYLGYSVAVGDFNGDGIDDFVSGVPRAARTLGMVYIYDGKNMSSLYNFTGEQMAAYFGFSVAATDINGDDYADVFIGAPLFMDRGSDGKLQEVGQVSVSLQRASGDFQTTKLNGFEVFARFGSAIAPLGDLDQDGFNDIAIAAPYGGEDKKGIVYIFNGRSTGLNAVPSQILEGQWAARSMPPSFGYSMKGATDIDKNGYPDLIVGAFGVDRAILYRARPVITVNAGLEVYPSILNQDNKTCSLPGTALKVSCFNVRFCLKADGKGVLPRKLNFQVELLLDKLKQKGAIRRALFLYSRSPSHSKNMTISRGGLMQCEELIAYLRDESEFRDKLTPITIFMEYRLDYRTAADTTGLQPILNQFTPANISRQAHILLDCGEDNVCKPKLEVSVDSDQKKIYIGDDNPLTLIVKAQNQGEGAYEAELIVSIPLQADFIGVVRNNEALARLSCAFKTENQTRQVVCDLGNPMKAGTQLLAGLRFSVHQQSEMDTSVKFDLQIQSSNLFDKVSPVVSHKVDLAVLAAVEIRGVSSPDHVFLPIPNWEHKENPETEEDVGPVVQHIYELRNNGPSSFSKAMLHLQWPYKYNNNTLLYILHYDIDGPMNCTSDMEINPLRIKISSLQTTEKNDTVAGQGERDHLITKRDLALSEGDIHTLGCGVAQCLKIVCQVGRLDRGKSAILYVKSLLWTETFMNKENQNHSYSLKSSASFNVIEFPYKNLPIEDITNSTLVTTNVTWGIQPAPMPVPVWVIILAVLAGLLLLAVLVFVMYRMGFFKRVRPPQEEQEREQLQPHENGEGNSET
UniProt P05106: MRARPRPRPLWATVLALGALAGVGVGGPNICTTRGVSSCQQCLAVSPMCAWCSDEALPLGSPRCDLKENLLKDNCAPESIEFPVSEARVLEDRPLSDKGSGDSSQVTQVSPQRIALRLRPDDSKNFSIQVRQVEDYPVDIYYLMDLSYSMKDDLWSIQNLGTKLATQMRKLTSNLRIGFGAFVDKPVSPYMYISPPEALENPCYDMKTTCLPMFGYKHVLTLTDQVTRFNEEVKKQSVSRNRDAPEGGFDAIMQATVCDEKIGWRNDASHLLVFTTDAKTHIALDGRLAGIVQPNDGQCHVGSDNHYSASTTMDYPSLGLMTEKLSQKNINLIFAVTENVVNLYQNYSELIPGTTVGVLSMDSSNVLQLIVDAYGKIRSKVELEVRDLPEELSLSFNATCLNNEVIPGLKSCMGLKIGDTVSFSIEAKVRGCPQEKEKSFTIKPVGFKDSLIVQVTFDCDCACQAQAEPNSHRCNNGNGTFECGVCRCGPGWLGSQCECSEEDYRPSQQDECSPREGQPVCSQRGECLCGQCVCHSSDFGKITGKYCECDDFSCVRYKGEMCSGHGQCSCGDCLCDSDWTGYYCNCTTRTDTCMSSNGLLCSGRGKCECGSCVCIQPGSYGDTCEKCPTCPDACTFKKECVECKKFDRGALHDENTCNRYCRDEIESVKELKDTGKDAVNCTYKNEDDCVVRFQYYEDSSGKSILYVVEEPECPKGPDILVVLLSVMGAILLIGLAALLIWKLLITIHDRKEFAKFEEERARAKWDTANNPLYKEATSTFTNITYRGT
UniProt P35968, residues 20-1356: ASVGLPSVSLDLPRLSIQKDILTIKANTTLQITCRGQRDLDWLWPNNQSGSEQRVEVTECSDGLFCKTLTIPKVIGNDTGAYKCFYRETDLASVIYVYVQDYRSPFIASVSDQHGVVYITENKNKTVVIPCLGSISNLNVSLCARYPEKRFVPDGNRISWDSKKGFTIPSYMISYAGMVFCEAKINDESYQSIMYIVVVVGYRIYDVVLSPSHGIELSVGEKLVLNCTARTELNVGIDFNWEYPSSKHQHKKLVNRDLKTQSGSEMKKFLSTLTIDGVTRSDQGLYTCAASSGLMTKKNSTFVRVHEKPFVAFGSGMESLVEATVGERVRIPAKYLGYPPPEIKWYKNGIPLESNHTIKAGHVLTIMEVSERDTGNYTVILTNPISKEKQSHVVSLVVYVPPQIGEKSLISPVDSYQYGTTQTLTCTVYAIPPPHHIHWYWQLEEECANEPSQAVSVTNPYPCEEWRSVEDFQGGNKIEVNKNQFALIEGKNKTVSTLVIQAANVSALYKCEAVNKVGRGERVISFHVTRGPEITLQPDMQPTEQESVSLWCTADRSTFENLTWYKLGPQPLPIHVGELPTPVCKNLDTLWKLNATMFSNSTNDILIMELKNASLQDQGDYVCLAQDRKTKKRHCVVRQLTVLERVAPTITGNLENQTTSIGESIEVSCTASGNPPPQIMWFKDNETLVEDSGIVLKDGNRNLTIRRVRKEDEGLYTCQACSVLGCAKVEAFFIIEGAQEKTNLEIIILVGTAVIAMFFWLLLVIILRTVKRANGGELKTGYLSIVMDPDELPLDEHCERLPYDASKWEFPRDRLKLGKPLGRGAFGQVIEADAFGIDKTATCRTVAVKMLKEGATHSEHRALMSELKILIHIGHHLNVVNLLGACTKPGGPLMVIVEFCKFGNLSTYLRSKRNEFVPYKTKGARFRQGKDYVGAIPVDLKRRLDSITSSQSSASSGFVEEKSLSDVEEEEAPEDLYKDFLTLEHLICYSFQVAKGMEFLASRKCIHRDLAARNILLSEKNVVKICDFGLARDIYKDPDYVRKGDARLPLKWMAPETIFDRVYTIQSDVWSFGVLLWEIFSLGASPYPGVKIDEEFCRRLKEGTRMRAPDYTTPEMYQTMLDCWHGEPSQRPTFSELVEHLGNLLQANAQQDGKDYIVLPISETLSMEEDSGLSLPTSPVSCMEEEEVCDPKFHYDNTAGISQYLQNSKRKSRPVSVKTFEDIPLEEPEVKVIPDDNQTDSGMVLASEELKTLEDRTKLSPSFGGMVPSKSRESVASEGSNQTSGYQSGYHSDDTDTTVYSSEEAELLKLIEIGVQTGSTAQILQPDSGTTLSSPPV

Results are given in words; binding and its absence hold for the method and conditions named. For some assays here: In cells and extracts the contact can be indirect. Some binding calls cover weakened binding; strength is not graded here.

Experiment [1] has as its target T1, integrin αvβ3 (endogenous) (human (endogenous in U87, U373, HUVEC)) (UniProt P06756+P05106). Kind of experiment: co-IP; HUVEC; co-immunoprecipitation, bait not told in the text shown (Fig. S14).
The target in experiment [2] is T2, membrane CD146 (endogenous) (human (endogenous in U87, U373, HUVEC)) (UniProt P43121).
T2 sequence: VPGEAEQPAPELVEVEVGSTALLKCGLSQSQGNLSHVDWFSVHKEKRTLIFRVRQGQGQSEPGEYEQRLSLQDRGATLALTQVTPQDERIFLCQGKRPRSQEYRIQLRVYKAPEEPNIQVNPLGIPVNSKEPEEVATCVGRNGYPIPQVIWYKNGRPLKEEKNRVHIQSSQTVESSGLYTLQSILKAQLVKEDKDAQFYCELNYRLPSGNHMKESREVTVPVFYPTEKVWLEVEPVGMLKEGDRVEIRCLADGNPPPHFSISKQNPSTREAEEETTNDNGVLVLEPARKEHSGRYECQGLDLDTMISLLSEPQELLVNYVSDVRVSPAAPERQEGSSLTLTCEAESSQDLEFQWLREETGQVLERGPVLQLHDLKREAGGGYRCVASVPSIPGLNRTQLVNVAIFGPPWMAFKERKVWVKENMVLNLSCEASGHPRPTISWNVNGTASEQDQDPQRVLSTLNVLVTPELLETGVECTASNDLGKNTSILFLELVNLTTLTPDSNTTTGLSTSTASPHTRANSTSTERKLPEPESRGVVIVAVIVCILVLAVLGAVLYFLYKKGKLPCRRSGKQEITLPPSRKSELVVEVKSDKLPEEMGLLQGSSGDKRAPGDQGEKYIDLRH
Briefly: co-IP; U373 cells; as in U87: immunoprecipitation with anti-CD146 antibody S-Endo1 (Fig. S12A).

Experiment [3] concerns the target T2, membrane CD146 (endogenous) (human (endogenous in U87, U373, HUVEC)). Kind of experiment: co-IP; U87 cells; immunoprecipitation with anti-CD146 antibody S-Endo1, blots with anti-VEGFR2, anti-αv, anti-β3 and anti-EPCAM.
For experiment [4] the target is unchanged. Briefly: co-IP; HUVEC; co-immunoprecipitation, bait not told in the text shown (Fig. S14).
Experiment [5] deals with T1, integrin αvβ3 (endogenous) (human (endogenous in U87, U373, HUVEC)). Kind of experiment: flow cytometry on cells; sCD146-FITC binding to U87 cells transfected with siRNA targeting αv, β3, αL or β2; only the binder purified. In general terms: In flow cytometry, cells or beads pass a laser one at a time.
The target is the same in experiment [6]. Kind of experiment: flow cytometry on cells; sCD146-FITC binding to U373 cells transfected with siRNA targeting αv, β3, αL or β2 (Fig. S8B); only the binder purified.
The target of experiment [7] is integrin αvβ3 expressed in CHO cells (UniProt P06756). Briefly: flow cytometry on cells; sCD146-FITC binding to CHO cells co-transfected with plasmids encoding αv and β3 or control plasmids (mock); only the binder purified.

Turning to “VEGFR2 (endogenous) (from UniProt P35968 20-1356) (receptor)”, the binding result in experiment [1], in experiment [2] and in experiment [3] was “binds” in each case.
In the case of “integrin αvβ3 (endogenous) (from UniProt P06756 31-1048; P05106 27-788) (receptor)”, the binding entry in experiment [4], in experiment [2] and in experiment [3] was “binds” in each case.
On to “sCD146-FITC (from UniProt P43121 24-559) (ligand)”, for which the binding result in experiment [5], in experiment [6] and in experiment [7] was “binds” throughout.

B1: EPCAM (endogenous) (protein, UniProt P16422 24-314)
chain: QEECVCENYKLAVNCFVNNNRQCQCTSVGAQNTVICSKLAAKCLVMKAEMNGSKLGRRAKPEGALQNNDGLYDPDCDESGLFKAKQCNGTSMCWCVNTAGVRRTDKDTEITCSERVRTYWIIIELKHKAREKPYDSKSLRTALQKEITTRYQLDPKFITSILYENNVITIDLVQNSSQKTQNDVDIADVAYYFEKDVKGESLFHSKKMDLTVNGEQLDLDPGQTLIYYVDEKAPEFSMQGLKAGVIAVIVVVVIAVVAGIVVLVISRKKRMAKYEKAEIKEMGEMHRELNA
Take B1: the binding result in experiment [2] and in experiment [3] was “no binding” throughout.
